The other results are listed elsewhere or left out. The data scatter; read single values as rough.
Columns and labels:
[1] = compound: ClCC(=O)N[C@@H]1CCCc2ccccc12; assay: log2 mean competition ratio of IA-DTB cysteine labelling (DMSO/compound) (log2 ratio); higher = stronger cysteine engagement by compound; conditions: treatment time: 4 h, cell line lysate: HEK293T
Procedure: (§1)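 IA-DTB competitive cysteine chemoproteomics in HEK293T RIPA lysate. Lysates were treated with compound 29 or 30 at 50 or 200 µM for 4 h, then IA-DTB (500 µM, 1 h), trypsin-digested, NeutrAvidin-enriched and analysed by diaPASEF. Competition ratio = intensity DMSO / intensity compound (n=4 treated, n=64 DMSO); binding: mean log2 CR ≥ 1 and p ≤ 0.05 plus QC filters. Target is the cysteine site.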

By UniProt entry, the sequences of proteins in these tests, tags left out. Where a name states a change or a piece, a line headed by the entry shows the natural chain unless it says otherwise. Residues count along the entry.
UniProt P26639: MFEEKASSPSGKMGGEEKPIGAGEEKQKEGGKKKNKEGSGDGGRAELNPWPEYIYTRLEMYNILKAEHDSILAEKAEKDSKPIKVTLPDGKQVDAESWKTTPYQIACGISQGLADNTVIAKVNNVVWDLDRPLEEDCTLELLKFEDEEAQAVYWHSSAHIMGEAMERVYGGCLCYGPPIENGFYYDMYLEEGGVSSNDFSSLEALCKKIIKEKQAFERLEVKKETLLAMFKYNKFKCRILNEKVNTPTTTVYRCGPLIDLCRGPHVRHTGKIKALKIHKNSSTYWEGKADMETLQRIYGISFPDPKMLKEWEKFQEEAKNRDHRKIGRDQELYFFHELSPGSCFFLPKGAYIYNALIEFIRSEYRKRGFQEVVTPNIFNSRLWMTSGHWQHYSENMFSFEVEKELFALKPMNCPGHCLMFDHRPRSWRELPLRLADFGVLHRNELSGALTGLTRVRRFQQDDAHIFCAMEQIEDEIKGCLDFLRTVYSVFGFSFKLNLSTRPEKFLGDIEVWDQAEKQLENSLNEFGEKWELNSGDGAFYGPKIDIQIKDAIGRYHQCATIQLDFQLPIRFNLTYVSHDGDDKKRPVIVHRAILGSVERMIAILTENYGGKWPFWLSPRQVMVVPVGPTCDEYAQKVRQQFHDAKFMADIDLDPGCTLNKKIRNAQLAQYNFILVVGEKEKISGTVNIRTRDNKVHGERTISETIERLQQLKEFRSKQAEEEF
UniProt Q8NHU6: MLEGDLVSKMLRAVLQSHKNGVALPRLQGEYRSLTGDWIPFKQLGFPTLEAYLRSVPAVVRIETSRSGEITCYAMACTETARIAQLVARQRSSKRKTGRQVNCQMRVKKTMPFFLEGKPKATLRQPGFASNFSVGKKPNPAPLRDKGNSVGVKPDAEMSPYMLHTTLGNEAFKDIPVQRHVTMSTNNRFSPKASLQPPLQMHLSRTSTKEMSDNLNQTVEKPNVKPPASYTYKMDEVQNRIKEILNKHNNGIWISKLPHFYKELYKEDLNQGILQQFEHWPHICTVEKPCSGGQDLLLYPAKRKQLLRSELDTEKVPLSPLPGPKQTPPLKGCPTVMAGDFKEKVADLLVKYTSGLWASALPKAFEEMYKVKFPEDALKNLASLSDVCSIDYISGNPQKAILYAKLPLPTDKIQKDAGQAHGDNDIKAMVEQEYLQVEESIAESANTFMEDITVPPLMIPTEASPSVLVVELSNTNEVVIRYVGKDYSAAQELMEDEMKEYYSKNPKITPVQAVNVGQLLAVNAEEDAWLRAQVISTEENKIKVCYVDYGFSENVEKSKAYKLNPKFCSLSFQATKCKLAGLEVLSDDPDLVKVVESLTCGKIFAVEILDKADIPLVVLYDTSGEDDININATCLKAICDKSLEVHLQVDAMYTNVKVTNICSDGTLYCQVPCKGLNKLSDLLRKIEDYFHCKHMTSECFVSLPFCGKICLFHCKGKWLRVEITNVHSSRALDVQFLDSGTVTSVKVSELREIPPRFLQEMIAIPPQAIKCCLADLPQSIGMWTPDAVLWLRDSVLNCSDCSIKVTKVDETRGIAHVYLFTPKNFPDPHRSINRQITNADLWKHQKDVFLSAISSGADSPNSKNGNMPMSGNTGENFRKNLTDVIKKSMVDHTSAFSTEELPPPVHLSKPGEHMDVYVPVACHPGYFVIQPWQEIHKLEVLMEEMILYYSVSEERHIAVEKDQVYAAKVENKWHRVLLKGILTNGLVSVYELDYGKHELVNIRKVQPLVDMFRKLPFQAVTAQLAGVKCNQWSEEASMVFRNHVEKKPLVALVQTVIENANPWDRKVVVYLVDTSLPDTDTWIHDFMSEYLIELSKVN
UniProt O60343: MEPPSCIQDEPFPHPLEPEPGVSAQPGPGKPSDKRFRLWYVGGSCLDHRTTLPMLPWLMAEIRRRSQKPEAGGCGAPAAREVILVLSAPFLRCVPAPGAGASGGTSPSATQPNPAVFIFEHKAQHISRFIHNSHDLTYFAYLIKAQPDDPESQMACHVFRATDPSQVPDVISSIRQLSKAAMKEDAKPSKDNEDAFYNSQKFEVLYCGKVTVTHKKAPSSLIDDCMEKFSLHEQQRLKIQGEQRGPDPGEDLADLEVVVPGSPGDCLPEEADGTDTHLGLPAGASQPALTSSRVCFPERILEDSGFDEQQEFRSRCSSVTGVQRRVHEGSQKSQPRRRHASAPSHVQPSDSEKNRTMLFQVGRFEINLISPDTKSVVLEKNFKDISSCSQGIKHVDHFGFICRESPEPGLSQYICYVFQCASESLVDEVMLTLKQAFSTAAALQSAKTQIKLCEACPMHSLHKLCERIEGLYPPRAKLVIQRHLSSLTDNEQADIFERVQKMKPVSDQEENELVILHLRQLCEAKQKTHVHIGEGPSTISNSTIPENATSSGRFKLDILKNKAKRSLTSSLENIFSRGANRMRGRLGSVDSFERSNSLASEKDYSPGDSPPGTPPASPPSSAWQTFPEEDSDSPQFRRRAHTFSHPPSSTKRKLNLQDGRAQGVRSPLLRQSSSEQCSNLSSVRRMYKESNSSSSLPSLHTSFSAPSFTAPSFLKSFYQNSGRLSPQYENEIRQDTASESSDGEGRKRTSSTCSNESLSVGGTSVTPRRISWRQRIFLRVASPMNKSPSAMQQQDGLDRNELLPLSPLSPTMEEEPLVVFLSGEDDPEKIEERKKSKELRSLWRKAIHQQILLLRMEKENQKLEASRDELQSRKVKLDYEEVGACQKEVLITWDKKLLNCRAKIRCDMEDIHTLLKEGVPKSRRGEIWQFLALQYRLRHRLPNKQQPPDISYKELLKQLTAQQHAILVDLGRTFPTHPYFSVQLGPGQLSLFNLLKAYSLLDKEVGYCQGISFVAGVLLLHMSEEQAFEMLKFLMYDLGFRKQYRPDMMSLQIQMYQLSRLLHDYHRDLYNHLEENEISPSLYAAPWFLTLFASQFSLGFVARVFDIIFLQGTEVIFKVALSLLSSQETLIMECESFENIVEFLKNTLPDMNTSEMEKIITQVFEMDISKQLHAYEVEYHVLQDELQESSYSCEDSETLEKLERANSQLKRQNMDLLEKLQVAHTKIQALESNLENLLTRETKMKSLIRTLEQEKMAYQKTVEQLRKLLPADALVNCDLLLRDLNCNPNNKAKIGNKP
UniProt Q17R31, 207-226: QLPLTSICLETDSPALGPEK
UniProt Q9Y4P3: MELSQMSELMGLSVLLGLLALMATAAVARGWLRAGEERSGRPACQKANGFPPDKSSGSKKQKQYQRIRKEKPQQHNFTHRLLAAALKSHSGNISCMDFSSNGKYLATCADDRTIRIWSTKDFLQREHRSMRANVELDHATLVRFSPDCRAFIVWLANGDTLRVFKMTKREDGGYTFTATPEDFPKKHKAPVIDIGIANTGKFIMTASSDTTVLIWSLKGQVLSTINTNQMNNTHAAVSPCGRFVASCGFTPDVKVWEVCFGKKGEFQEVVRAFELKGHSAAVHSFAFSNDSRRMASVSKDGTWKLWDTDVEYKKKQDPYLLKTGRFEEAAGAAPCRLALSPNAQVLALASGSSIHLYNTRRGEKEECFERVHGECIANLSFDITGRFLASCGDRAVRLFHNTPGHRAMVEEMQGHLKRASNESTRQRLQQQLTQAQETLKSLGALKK
UniProt Q9BV44: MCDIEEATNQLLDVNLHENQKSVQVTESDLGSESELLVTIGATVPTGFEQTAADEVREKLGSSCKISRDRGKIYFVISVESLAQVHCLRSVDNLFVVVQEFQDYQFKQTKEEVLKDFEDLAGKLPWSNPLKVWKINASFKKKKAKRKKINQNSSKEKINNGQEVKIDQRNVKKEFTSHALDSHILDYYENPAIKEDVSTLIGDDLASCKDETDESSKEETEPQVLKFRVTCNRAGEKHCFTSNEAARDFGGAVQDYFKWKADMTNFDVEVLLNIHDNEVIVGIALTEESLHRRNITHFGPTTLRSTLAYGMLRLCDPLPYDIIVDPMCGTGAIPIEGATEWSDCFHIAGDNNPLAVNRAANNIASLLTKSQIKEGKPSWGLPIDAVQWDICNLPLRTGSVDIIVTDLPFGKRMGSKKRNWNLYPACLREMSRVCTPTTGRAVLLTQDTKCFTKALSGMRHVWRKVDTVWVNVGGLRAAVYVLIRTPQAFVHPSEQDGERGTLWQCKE
UniProt Q15170: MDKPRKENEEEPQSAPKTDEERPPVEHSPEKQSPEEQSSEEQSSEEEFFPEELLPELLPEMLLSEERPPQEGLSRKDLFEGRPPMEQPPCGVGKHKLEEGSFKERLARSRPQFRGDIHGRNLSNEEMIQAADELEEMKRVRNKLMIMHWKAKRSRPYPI
UniProt Q9NQ88: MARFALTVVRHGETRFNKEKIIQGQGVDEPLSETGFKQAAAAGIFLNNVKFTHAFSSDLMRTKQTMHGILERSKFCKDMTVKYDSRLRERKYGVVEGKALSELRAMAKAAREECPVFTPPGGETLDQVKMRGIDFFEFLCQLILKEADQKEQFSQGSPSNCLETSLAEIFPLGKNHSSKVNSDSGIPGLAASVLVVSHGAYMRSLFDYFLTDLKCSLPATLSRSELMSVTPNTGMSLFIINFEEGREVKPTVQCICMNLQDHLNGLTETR
UniProt Q6YHU6: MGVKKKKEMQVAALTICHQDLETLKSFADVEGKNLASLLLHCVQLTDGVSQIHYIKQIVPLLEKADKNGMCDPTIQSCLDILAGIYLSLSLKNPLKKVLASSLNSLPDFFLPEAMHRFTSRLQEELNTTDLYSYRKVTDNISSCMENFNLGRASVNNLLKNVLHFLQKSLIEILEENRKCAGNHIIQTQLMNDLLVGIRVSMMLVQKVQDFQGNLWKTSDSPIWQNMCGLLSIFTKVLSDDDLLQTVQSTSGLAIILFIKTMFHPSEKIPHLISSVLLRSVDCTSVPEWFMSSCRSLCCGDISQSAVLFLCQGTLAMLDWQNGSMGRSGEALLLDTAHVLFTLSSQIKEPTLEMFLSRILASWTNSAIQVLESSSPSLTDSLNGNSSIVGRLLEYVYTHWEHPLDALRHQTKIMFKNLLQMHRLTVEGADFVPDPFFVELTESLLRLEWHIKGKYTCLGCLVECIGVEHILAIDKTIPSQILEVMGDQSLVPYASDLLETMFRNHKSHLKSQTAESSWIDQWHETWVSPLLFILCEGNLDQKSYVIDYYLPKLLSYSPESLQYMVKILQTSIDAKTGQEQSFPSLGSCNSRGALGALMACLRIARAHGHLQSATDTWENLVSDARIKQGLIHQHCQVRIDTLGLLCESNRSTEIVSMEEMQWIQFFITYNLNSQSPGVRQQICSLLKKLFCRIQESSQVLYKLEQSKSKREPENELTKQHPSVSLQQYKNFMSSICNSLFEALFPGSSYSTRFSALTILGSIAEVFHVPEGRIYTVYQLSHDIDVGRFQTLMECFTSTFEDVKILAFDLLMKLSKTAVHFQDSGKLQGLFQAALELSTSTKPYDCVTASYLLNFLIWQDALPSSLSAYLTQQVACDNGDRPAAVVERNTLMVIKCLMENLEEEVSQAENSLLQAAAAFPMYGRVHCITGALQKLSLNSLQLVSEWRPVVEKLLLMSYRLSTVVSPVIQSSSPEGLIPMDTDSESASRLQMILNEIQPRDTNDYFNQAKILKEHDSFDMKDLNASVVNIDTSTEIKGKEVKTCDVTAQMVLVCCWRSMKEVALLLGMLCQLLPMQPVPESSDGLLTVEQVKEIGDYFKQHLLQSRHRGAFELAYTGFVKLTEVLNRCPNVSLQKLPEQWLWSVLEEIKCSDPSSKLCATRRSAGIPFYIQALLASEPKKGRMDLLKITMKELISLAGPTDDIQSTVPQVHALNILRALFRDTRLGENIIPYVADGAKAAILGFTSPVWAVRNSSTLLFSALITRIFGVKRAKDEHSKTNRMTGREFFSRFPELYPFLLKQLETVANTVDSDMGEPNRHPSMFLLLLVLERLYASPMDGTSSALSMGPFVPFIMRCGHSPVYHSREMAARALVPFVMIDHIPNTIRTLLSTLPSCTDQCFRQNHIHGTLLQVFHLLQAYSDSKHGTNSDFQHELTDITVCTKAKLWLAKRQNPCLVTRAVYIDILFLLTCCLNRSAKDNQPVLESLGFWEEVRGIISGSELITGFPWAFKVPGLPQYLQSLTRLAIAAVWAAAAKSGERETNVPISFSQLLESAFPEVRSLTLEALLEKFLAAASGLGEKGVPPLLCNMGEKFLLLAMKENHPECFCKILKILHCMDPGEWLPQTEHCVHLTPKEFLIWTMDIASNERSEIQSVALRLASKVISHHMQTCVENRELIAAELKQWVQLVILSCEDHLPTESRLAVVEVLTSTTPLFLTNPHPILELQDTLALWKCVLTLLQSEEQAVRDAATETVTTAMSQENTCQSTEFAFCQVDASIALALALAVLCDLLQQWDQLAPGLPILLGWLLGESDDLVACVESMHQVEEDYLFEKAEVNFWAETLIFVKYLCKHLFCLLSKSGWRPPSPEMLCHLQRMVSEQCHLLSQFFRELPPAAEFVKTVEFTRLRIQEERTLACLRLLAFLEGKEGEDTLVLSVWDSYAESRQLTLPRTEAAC
UniProt Q8IYN2: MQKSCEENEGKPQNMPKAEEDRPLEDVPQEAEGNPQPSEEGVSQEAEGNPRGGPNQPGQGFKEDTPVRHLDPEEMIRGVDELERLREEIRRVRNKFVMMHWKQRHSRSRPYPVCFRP

[2] = compound: ClCC(=O)N[C@H]1CCCc2ccccc12; assay: as above; conditions: treatment time: 4 h, cell line lysate: HEK293T
Procedure: as §1

Row | Target | log2 mean competition ratio ([1]; 50 µM) | log2 mean competition ratio ([1]; 200 µM) | log2 mean competition ratio ([2]; 50 µM) | log2 mean competition ratio ([2]; 200 µM)
1 | TACC1 C715 (UniProt O75410) | 0.484 | 0.176 | 0.469 | 0.201
2 | TBCEL C121 (UniProt Q5QJ74) | 0.101 | -0.0545 | -0.342 | -0.2
3 | TARS1 C630 (UniProt P26639) | -0.345 | 0.188 | 0.0378 | 0.297
4 | TBC1D22B C354 (UniProt Q9NU19) | 0.191 | 0.144 | 0.078 | 0.339
5 | TIAM1 C1061 | -0.0305 | -0.221 | 0.224 | 0.0433
6 | TARBP1 C24 (UniProt Q13395) | -0.104 | 0.322 | -0.358 | 0.276
7 | TANC1 C1808 (UniProt Q9C0D5) | -0.133 | -0.0391 | 0.199 | 0.00378
8 | TBC1D9B C308 (UniProt Q66K14) | 0.268 | -0.241 | 0.00889 | 0.0281
9 | TAOK3 C795 (UniProt Q9H2K8) | 0.279 | 0.0383 | 0.183 | -0.346
10 | TATDN2 C602 (UniProt Q93075) | -0.144 | -0.0743 | -0.171 | -0.254
11 | TDRD7 C333 (UniProt Q8NHU6) | 0.0851 | -0.203 | 0.396 | 0.0195
12 | TAOK2 C623 (UniProt Q9UL54) | -0.185 | 0.471 | -0.751 | 0.0527
13 | TASOR C830 (UniProt Q9UK61) | -0.144 | 0.0275 | 0.11 | 0.136
14 | TFDP2 C329 (UniProt Q14188) | -0.177 | 0.101 | 0.121 | 0.203
15 | TBC1D4 C1286 (UniProt O60343) | -0.1 | 0.165 | -0.106 | 0.253
16 | TBC1D4 C388 (UniProt O60343) | -0.0734 | -0.0837 | 0.246 | -0.023
17 | TATDN3 C214 (UniProt Q17R31) | -0.635 | 0.815 | -0.318 | 0.324
18 | TDRD7 C103 (UniProt Q8NHU6) | -0.0823 | 0.0223 | 0.0679 | 0.163
19 | TAX1BP1 C675 (UniProt Q86VP1) | -0.439 | -0.0104 | -0.0182 | 0.548
20 | TICRR C1791 (UniProt Q7Z2Z1) | 0.287 | 0.16 | -0.105 | 0.148
21 | TDRD7 C692 (UniProt Q8NHU6) | 0.0179 | 0.000288 | -0.174 | -0.0763
22 | TBL2 C95 (UniProt Q9Y4P3) | 0.178 | 0.178 | -0.112 | 0.124

Pulled one by one from the list above:
Row | Target | log2 mean competition ratio ([1]; 50 µM) | log2 mean competition ratio ([1]; 200 µM) | log2 mean competition ratio ([2]; 50 µM) | log2 mean competition ratio ([2]; 200 µM)
12 | TAOK2 C623 (UniProt Q9UL54) | -0.185 | 0.471 | -0.751 | 0.0527
1 | TACC1 C715 (UniProt O75410) | 0.484 | 0.176 | 0.469 | 0.201
11 | TDRD7 C333 (UniProt Q8NHU6) | 0.0851 | -0.203 | 0.396 | 0.0195

(further entries)

Row | Target | log2 mean competition ratio ([1]; 50 µM) | log2 mean competition ratio ([1]; 200 µM) | log2 mean competition ratio ([2]; 50 µM) | log2 mean competition ratio ([2]; 200 µM)
23 | THNSL1 C723 (UniProt Q8IYQ7) | 0.0457 | 0.0164 | -0.139 | 0.12
24 | TAF2 C303 (UniProt Q6P1X5) | 0.0759 | -0.227 | -0.369 | -0.171
25 | TBL3 C444 (UniProt Q12788) | -0.23 | -0.39 | -0.279 | -0.24
26 | SZT2 C2893 (UniProt Q5T011) | -0.333 | -0.225 | -0.296 | -0.252
27 | THUMPD3 C434 (UniProt Q9BV44) | -0.0501 | 0.077 | -0.0348 | 0.155
28 | TCEAL1 C90 (UniProt Q15170) | -0.207 | -0.0671 | -0.155 | -0.0234
29 | TEDC1 C87 (UniProt Q86SX3) | 0.147 | 0.224 | 0.18 | 0.283
30 | TAF4B C719 (UniProt Q92750) | -0.0483 | -0.101 | 0.484 | 0.305
31 | TBCE C152 (UniProt Q15813) | 0.0341 | -0.0693 | -0.202 | 0.425
32 | TIGAR C114 (UniProt Q9NQ88) | -0.253 | -0.0803 | 0.168 | 0.0359
33 | TBC1D9B C839 (UniProt Q66K14) | 0.367 | 0.613 | 0.478 | 0.58
34 | TANGO6 C286 (UniProt Q9C0B7) | -0.327 | 0.207 | -0.315 | 0.255
35 | THADA C1354 (UniProt Q6YHU6) | -0.201 | 0.0623 | -0.0632 | 0.00716
36 | TBC1D5 C706 (UniProt Q92609) | -0.302 | 0.163 | 0.0556 | 0.0186
37 | TAOK1 C798 (UniProt Q7L7X3) | -0.103 | -0.253 | -0.259 | -0.339
38 | TCEAL8 C5 (UniProt Q8IYN2) | -0.0874 | -0.0845 | -0.0211 | -0.0544
39 | TBC1D4 C156 (UniProt O60343) | 0.0692 | 0.0751 | 0.0554 | -0.00147
40 | TARS3 C74 | 0.0584 | 0.305 | 0.0471 | 0.327
41 | TANC1 C1400 (UniProt Q9C0D5) | 0.0379 | 0.35 | 0.141 | 0.319
42 | TCEAL4 C34 (UniProt Q96EI5) | -0.0593 | -0.198 | 0.118 | 0.00368
43 | TACO1 C112 (UniProt Q9BSH4) | -0.295 | 0.302 | -0.676 | 0.0925

Source: the supplement of paper PMC11732987, “Enantioselective OTUD7B fragment discovery through chemoproteomics screening and high-throughput optimisation” (Communications Chemistry, 2025)
